Molecules are shown by their SMILES. In all, about 1,300 compounds went through this assay and fewer than 10 were called active. Another 9% or so got no clear call; they are omitted. Calls follow the shape of the dose curve; as a rule, active = well fitted curve in the direction sought with a large enough effect; inconclusive = small, poorly fitted or top-dose-only effect, or another doubt; inactive = no such curve, though single readings can be large or run the other way. The list shows a part of the results.

This test can be described thus: qHTS for antagonists of the Thyroid Stimulation Hormone Receptor: Hit Validation in Parental Cell Line. Also: 0% is about no effect. The following applies: parental HEK293 cells lacking TSHR, counter-screen; at 56.9 µM (top of the series). The text has this: The thyroid-stimulating hormone receptor (TSHR) is a member of the 7 trans-membrane-spanning receptor (7TMR) family of cell surface receptors. TSHR-mediated hyperthyroidism is important in thyroid pathology. The development of small molecule antagonists of TSHR may lead to therapeutic approaches for TSHR-mediated hyperthyroidism caused by constitutively activating mutations or stimulating auto-antibodies associated with Graves' disease. Graves' disease is the leading cause of hyperthyroidism and is caused by autoantibodies that stimulate TSHR (TsAbs) causing thyroid growth and unregulated overproduction of thyroid hormones and existing treatments have liabilities (agranulocytosis). In addition, TSHRs are known to be expressed in multiple extrathyroidal tissues including bone, brain, kidney, testis, fat and cells of the immune system but the role of the TSHR in these tissues is not clear. Therefore, TSHR antagonists/inverse agonists could be used as probes of extrathyroidal TSHR function. Finally, TSHR inverse agonists, which are a subclass of antagonists that inhibit agonist-independent (or basal or constitutive) TSHR signaling, could be used to inhibit TSH-independent signaling in patients with recurrent or metastatic thyroid cancer who are receiving thyroid hormone to suppress TSH.
In collaboration between scientist from the NCGC and the NIDDK, a miniaturized HTRF high-throughput screen was developed. It's a cell based assay, where an anti cAMP antibody contains a fluorescent cryptate tag (excitation 337 nm; emission 620 nm) and the acceptor is cAMP-d2 (excitation 620 nm; emission 665 nm). When antibody and cAMP-d2 interact and are excited by a 337 nm light, a FRET occurs resulting in emission at 665 nm. The assay is competition between cAMP-d2 and cAMP (from the cell lysate). The homogeneous protocol allows for one step dispense after stimulation that is automation friendly. This is a hit validation assay in a counterscreen using parental HEK 293 cells lines.
NIH Chemical Genomics Center [NCGC]
NIH Molecular Libraries Probe Centers Network [MLPCN]
Assay Provider: Marvin Gershengorn, NIDDK
An anti cAMP antibody contains a fluorescent cryptate tag (excitation 337 nm; emission 620 nm) and the acceptor is cAMP-d2 (excitation 620 nm; emission 665 nm). When antibody and cAMP-d2 interact and are excited by a 337 nm light, a FRET occurs resulting in emission at 665 nm. The assay is competition between cAMP-d2 and cAMP (from the cell lysate). The homogeneous protocol allows for one step dispense after stimulation that is automation friendly. This assay uses parental HEK-EM 293 cells
Take `Cc1nc2ccccc2c(=O)n1-c1cccc(C(F)(F)F)c1`: the activity change, negative = inhibition was inactive: 4.59%.

Consider `COC(=O)C1=C(c2ccc(-c3ccccc3)c(F)c2)C[C@@H]2CC[C@H]1N2C(=O)NCCOc1ccccc1`, for which the activity change, negative = inhibition is inactive: 0.638%. For the molecule `CC12CCC3C(CC=C4CC5(CCC43C)OCCO5)C1CCC2=O` (centres undefined), the activity change, negative = inhibition was inactive: 1.45%. The value for `COC(=O)C1=C(c2ccc(OCc3ccccc3)cc2)C[C@@H]2CC[C@H]1N2C(=O)NCc1cccc(OC)c1` was inactive: 7.23%. With `COC(=O)C1=C(c2ccc(-c3ccccc3)c(F)c2)C[C@@H]2CC[C@H]1N2C(=O)NCCc1ccccc1`, the activity change, negative = inhibition is inactive: 0.764%. As for `C[C@]12CC[C@H](O)C[C@H]1CC[C@@H]1C2CC[C@]2(C)[C@@H](C3=CC(=O)OC3)[C@@H](O)C[C@]12O` (some centres undefined), the figure is inactive: -1.32%; as for `Cc1ccc(-n2c(C)nc3ccccc3c2=O)c(C)c1`, inactive: 3.25%; as for `Oc1ccc(-[n+]2c(-c3ccccc3)cc(-c3ccccc3)cc2-c2ccccc2)cc1`, inactive: -10.6%. Turning to `COC(=O)C1=C(c2ccc(-c3ccccc3)c(F)c2)C[C@@H]2CC[C@H]1N2C(=O)NCc1ccc(F)cc1`, the activity change, negative = inhibition was inactive: -1.78%.

Turning to `COc1ccc(-[n+]2c(-c3ccccc3)cc(-c3ccc(C)cc3)cc2-c2ccccc2)cc1`, the activity change, negative = inhibition is inactive: -8.58%. Consider `CCN(CC)S(=O)(=O)c1ccc(NN=C(C#N)C#N)cc1`, for which the activity change, negative = inhibition was inactive: -3.54%. As for `C[C@]12CC[C@H]3[C@@H](CC[C@]4(O)C[C@@H](O)CC[C@]34C=O)[C@@]1(O)CC[C@@H]2C1=CC(=O)OC1`, the figure is inactive: -2.73%; as for `COC(=O)C1=C(c2ccc(OC(F)(F)F)cc2)C[C@@H]2CC[C@H]1N2C(=O)N1CCC(C)CC1`, inactive: -2.64%; as for `Nc1ccc(C2(c3ccc(N)cc3)c3ccccc3-c3ccccc32)cc1`, inactive: 2.12%. Consider `COC(=O)C1=C(c2ccc(-c3ccccc3)c(F)c2)C[C@@H]2CC[C@H]1N2C(=O)NCCCOC(C)C`, for which the activity change, negative = inhibition was inactive: 0.51%. For `COC(=O)C1=C(c2ccc(-c3ccccc3)c(F)c2)C[C@@H]2CC[C@H]1N2C(=O)N1CCOCC1`, the activity change, negative = inhibition is inactive: 1.35%. On to `CNc1ccc2oc(C[C@H]3O[C@@]4(CC[C@H]3C)O[C@H]([C@H](C)C(=O)c3ccc[nH]3)[C@H](C)C[C@H]4C)nc2c1C(=O)O`, for which the activity change, negative = inhibition is inactive: 36%.

With `COc1cc(C(C)=O)ccc1OC(=O)N(C)c1ccccc1`, the activity change, negative = inhibition was inactive: 4.74%. For the molecule `COc1cc(N2C(=O)CC(=O)NC2=O)cc(OC)c1OC`, the activity change, negative = inhibition is inactive: 4.16%.

For the molecule `O=C(Nc1ccc2ccccc2c1)c1nn(C23CC4CC(CC(C4)C2)C3)cc1Br`, the activity change, negative = inhibition was inactive: -1.47%. Consider `CCCCN=C[C@]12CCC(O)CC1(O)CCC1[C@@H]2CC[C@]2(C)[C@H](C3C=CC(=O)O3)CCC12O` (some centres undefined), for which the activity change, negative = inhibition is inactive: -5.86%. On to `O=C(C1CCN(c2nc3ccc(Br)cc3s2)CC1)N1CCC2(CC1)OCCO2`, for which the activity change, negative = inhibition was inactive: -8.68%. Take `COC(=O)C1=C(c2ccc(-c3ccccc3)c(F)c2)C[C@@H]2CC[C@H]1N2C(=O)NCC1CC1`: the activity change, negative = inhibition was inactive: -3.4%.

Consider `C[C@H]1O[C@@H](OC2CC[C@]3(C=O)[C@H]4CC[C@]5(C)[C@@H](C6=CC(=O)OC6)CC[C@]5(O)[C@@H]4CC[C@]3(O)C2)CC2OC(C)(C)OC21` (some centres undefined), for which the activity change, negative = inhibition was inactive: -3.08%. With `CNc1cc(Cl)c2nonc2c1[N+](=O)[O-]`, the activity change, negative = inhibition is inactive: -11.7%. As for `CNc1ccc2nc3ccccc3[n+](C)c2c1`, the activity change, negative = inhibition is inactive: -9.64%.

For the molecule `CC(=O)c1ccc2c(c1)C1C(Cl)C(Sc3ccccc3[N+](=O)[O-])CC1C(C(=O)O)N2` (centres undefined), the activity change, negative = inhibition was inactive: -9.2%. As for `COc1cc2c(cc1/C=C/[N+](=O)[O-])OCO2`, the figure is inactive: -8.58%.

For `C[C@]12CC[C@H](O)C[C@H]1CC[C@@H]1[C@@H]2CC[C@]2(C)[C@@H](C3=CC(=O)OC3)CC[C@]12O`, the activity change, negative = inhibition is inactive: -15.8%. On to `C[C@]12CCC3C(CCC4=CC(O)CC[C@@]43/C=N/O)C1(O)CCC2C1=CC(=O)OC1` (some centres undefined), for which the activity change, negative = inhibition is inactive: -6.66%.

Regarding `COC(=O)C1=C(c2ccc(-c3ccccc3)c(F)c2)C[C@@H]2CC[C@H]1N2C(=O)NCc1ccco1`, the activity change, negative = inhibition was inactive: 2.82%. As for `COC(=O)C1=C(c2ccc(-c3ccccc3)c(F)c2)C[C@@H]2CC[C@H]1N2C(=O)NC(C)C`, the figure is inactive: 1.51%; as for `C[C@]12CC[C@H]3C(CCC4(O)CC(O)CC[C@]34C=O)C1=CC[C@H]2c1ccc(=O)oc1` (some centres undefined), inactive: -5.86%; as for `Cc1ccccc1-c1nc(CS(=O)CC(=O)N2CCC3(CC2)OCCO3)c(C)o1` (centres undefined), inactive: -0.666%.

Source of the values: PubChem BioAssay AID602441 (National Center for Advancing Translational Sciences (NCATS), 2012).
